# Experimental data from patent publication US20180050034A1, “ANTIFUNGAL TREATMENT OF CROHN'S DISEASE” (Gerbe Labs Inc., priority 2016, published 2018).
# For at least one compound, name, drawing or mass did not settle the structure.
# System: Candida albicans
# Experiment: Culture sensitivity, Patient 7 isolate
# Assay type: cell-based
# Details: Patient 7 Candida albicans culture
# Source text: The patient underwent the standard workup for CRS, sleep disorder, and nasal obstruction, plus our diagnostic skin test and sinus CT scan.
structure (smiles),measurement,value
CCC(C)n1ncn(-c2ccc(N3CCN(c4ccc(OCC5COC(Cn6cncn6)(c6ccc(Cl)cc6Cl)O5)cc4)CC3)cc2)c1=O (stereo not shown) [Itraconazole],Culture sensitivity,sensitive
